By UniProt entry, the sequences of proteins in these tests, tags left out.
UniProt P08659, whole entry, looked up: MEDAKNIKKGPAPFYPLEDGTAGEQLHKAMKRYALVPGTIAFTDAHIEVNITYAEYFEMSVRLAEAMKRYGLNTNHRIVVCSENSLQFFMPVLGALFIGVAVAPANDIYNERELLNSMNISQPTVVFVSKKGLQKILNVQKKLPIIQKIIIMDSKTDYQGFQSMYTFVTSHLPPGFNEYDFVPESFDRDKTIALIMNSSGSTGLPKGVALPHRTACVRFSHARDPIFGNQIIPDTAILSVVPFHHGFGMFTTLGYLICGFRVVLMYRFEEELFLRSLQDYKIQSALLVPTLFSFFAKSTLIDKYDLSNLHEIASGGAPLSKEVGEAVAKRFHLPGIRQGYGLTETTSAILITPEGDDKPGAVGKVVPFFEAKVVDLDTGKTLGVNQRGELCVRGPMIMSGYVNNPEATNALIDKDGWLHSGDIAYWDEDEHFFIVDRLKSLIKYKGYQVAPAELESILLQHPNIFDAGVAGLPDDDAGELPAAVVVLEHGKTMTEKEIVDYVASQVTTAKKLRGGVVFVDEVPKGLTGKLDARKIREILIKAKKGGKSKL

Inconclusive results, whose numbers are uncertain, are shown with a selection of clear calls. Potencies beside an inconclusive call are fits to weak or partial responses and may not hold up. Calls of active or inactive are those of the source. Calls come from the whole dose curve; as a rule, active = well fitted inhibition curve with a large enough effect; inconclusive = small, poorly fitted or top-dose-only effect; inactive = no such curve, though single readings can be large or run the other way.
The compounds below were run against Luciferin 4-monooxygenase (Photinus pyralis) (UniProt P08659) (assay: FLuc inhibitory activity for the follow-up compounds in a biochemical assay with Km concentrations of substrate). Conditions: purified FLuc, Km substrates, luminescence; series mostly up to 57.5 µM.
Excerpt: NCGC Assay Overview: Firefly (Photinus pyralis) luciferase is one of the most commonly used transcriptional reporters. It is considered one of the more dynamically responsive reporters - that is, responsive to changes in reporter transcription - as it requires no post-translational modifications and is enzymatically active directly after protein synthesis (Wood, 1998). With no endogenous expression in mammalian cells and without the requirement of external excitation, it offers very little background signal, thus generally providing excellent signal to background for most assays. Previous profiling work to determine the prevalence of compounds that affect FLuc enzymatic activity (PubChem AID 411) identified that ~3% of the MLSMR library (then at ~72K) inhibited FLuc. […] Of the compounds identified in this profile that inhibited FLuc, 151 compounds were selected for further analysis, in an effort to better understand their mode of inhibiting FLuc. The assay described here confirms the FLuc inhibitory activity of the 151 compounds.
NCGC Assay Protocol Summary: Reagents: 50mM Tris acetate, pH 7.5; 10mM Mg acetate; 10uM D-luciferin (Sigma #L9504); 10uM ATP; 0.01% Tween-20; 0.05% BSA; 10nM P. pyralis luciferase (Sigma #L9506) Control compounds used were two known firefly luciferase inhibitors (3-(5-(3-chlorophenyl)-1,2,4-oxadiazol-3-yl)benzoic acid and 5-(2-fluorophenyl)-3-phenyl-1,2,4-oxadiazole), and DMSO. Three microliters containing firefly luciferase substrates in buffer (final concentrations: 50mM Tris acetate, pH 7.5, 10mM Mg acetate, 0.01% Tween-20, 0.05% BSA, 10uM D-luciferin, and 10uM ATP) are dispensed into each well of a Greiner white, solid-bottom 1536-well format plate using a flying reagent dispenser (FRD). These assay plates were then treated with 23nL of compound or DMSO using a Kalypsys pin tool, which allows for delivery of a 12-point intraplate titration of each compound to the assay plate (quantitative HTS), with a final compound concentrations ranging from approximately ~60uM to 0.3nM. One microliter of firefly luciferase in 500mM Tris-acetate buffer was then delivered by FRD to each well for a final enzyme concentration of 10nM. Luciferase activity was then measured using a ViewLux CCD imager (PerkinElmer), with an average exposure time of 2-30 seconds (2X binning, medium/high gain).
In the case of `COc1ccc2nc(NC(=O)C3CCN(S(=O)(=O)c4cccs4)CC3)sc2c1`, the Potency is reported as inconclusive: 36.6 µM [inhibitor, single point]. With `O=C(Cc1ccc(Cl)cc1)Nc1cccc(C(=O)Nc2ccccc2C(=O)O)c1` the Potency was inconclusive: 32.6 µM [inhibitor, partial curve]. For `CC(C)CC(=O)Nc1cccc(C(=O)Nc2ccccc2C(=O)O)c1`, the Potency was active: 18.3 µM. In the case of `CCOc1ccc2nc(NC(=O)c3cc([N+](=O)[O-])ccc3N3CCOCC3)sc2c1`, the Potency is reported as inconclusive: 8.19 µM [inhibitor, partial curve, poor fit]. `COc1ccc(-c2nc3ccccc3s2)cc1NC(=O)c1ccc(F)cc1` was tested, and the Potency was “inactive”. With `CCCOc1cccc(C(=O)Nc2ccc(-c3nc4ccccc4s3)c(Cl)c2)c1` the Potency was inconclusive: 41.1 µM [inhibitor, partial curve, poor fit]. In the case of `Cc1ccc(S(=O)(=O)N2CCN(C(=O)c3ccccc3-c3nc4ccccc4s3)CC2)c(C)c1`, the Potency is reported as “inactive”. In the case of `O=C(Nc1ccccc1C(=O)O)c1cc(S(=O)(=O)Nc2cccc(F)c2)ccc1Cl`, the Potency is reported as inconclusive: 32.6 µM [inhibitor, partial curve, poor fit]. In the case of `CCOc1ccc(C(=O)Nc2ccccc2C(=O)O)cc1`, the Potency is reported as active: 1.46 µM. With `COc1ccccc1C(=O)Nc1ccc(C(=O)Nc2ccccc2C(=O)O)cc1` the Potency was inconclusive: 29.1 µM [inhibitor, partial curve]. In the case of `Cc1cccc(NS(=O)(=O)c2cccc(C(=O)Nc3cccc(C(=O)O)c3)c2)c1`, the Potency is reported as inconclusive: 32.6 µM [inhibitor, partial curve]. For `Cc1cccc(C(=O)Nc2ccc(-c3nc4ccccc4s3)cc2Cl)c1`, the Potency was inconclusive: 20.6 µM [inhibitor, partial curve, poor fit]. In the case of `COc1ccc(CC(=O)Nc2ccc(-c3nc4ccccc4s3)c(C)c2)cc1`, the Potency is reported as inconclusive: 29.1 µM [inhibitor, partial curve, poor fit]. With `O=C(Nc1ccccc1C(=O)O)c1cccc(C(=O)Nc2ccccc2C(=O)O)c1` the Potency was inconclusive: 20.6 µM [inhibitor, partial curve]. For `O=C(Cc1ccccc1)Nc1ccccc1C(=O)Nc1ccc(C(=O)O)cc1`, the Potency was “inactive”. With `O=C(Nc1ccccc1C(=O)O)c1ccccc1` the Potency was active: 32.6 µM. `O=C(O)c1ccc(NC(=O)c2ccccc2NC(=O)c2ccccc2Cl)cc1` was tested, and the Potency was inconclusive: 20.6 µM [inhibitor, partial curve]. With `O=C(O)c1cccc(NC(=O)c2cccc(S(=O)(=O)Nc3cccc(F)c3)c2)c1` the Potency was inconclusive: 32.6 µM [inhibitor, partial curve]. For `O=C(O)c1ccc(NC(=O)c2cccc(NC(=O)c3cccs3)c2)cc1`, the Potency was active: 9.19 µM. `COc1ccc2nc(NC(=O)c3ccc([N+](=O)[O-])o3)sc2c1` was tested, and the Potency was active: 3.66 µM. In the case of `Cc1ccc(C(=O)Nc2ccc(C(=O)O)cc2)cc1S(=O)(=O)Nc1ccccc1`, the Potency is reported as “inactive”. For `O=C(O)c1cccc(NC(=O)c2ccccc2NC(=O)c2ccco2)c1`, the Potency was inconclusive: 20.6 µM [inhibitor, partial curve]. `CCOc1c(Cl)cc(C(=O)Nc2ccccc2C(=O)O)cc1Cl` was tested, and the Potency was active: 18.3 µM. With `COc1ccc(CC(=O)Nc2cccc(C(=O)Nc3ccccc3C(=O)O)c2)cc1OC` the Potency was active: 41.1 µM. `O=C(Nc1ccccc1C(=O)O)c1cc(S(=O)(=O)NCc2ccccc2)ccc1Cl` was tested, and the Potency was “inactive”. `O=C(Nc1ccccc1-c1nc2ccccc2s1)c1ccc(Br)o1` was tested, and the Potency was “inactive”. `CC(C)Oc1ccc(C(=O)Nc2ccc(-c3nc4ccccc4s3)cc2)cc1` was tested, and the Potency was “inactive”. In the case of `COc1ccc(C(=O)Nc2ccccc2-c2nc3ccccc3s2)c(OC)c1`, the Potency is reported as “inactive”.

Source: PubChem BioAssay AID602357 (National Center for Advancing Translational Sciences (NCATS), 2012)
